± gives the standard deviation of the averaged measurements. This data set is noisy: repeats of one test often differ as much as different tests do.

Sequences of proteins named here, by UniProt entry; tags and fusion partners are left off. A change or cut given only in a name is not applied to a line headed by its entry.
UniProt Q08170: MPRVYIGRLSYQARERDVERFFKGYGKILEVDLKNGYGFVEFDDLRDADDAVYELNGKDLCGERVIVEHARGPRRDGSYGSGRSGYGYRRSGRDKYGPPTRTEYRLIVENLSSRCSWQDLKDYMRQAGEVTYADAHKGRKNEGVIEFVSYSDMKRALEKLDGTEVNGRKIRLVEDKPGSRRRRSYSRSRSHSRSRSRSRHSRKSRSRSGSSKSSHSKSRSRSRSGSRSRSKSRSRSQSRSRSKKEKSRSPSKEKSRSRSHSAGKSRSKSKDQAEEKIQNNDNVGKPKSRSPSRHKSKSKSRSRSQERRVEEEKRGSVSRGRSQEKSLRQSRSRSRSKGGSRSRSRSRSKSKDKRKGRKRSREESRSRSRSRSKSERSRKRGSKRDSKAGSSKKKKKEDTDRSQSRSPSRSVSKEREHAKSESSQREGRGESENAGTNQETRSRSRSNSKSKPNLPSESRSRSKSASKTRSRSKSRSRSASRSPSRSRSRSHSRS
UniProt Q9UNF1: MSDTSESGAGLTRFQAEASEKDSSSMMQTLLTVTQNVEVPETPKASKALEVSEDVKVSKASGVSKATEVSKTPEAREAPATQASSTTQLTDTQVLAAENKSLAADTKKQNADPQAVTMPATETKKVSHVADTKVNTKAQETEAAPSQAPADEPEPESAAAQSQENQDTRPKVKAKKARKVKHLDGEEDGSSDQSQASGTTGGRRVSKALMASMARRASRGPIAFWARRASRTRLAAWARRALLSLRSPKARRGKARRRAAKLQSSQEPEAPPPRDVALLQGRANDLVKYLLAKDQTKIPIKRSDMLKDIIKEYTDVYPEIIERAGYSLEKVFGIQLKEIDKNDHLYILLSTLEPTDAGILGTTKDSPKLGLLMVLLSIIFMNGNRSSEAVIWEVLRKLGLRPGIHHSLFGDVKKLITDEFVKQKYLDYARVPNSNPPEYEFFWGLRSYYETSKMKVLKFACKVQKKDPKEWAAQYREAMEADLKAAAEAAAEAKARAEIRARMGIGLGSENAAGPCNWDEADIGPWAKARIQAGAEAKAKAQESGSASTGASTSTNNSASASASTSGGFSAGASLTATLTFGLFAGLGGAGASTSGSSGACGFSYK
UniProt Q96MH2: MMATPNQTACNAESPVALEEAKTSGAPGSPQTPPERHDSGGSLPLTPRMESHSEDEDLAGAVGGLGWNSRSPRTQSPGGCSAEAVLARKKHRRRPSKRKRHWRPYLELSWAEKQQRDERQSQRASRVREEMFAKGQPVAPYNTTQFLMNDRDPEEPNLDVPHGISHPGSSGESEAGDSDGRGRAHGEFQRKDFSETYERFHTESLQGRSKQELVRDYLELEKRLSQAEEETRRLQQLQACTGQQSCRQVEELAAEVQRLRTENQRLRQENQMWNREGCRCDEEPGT
UniProt Q8IYB7: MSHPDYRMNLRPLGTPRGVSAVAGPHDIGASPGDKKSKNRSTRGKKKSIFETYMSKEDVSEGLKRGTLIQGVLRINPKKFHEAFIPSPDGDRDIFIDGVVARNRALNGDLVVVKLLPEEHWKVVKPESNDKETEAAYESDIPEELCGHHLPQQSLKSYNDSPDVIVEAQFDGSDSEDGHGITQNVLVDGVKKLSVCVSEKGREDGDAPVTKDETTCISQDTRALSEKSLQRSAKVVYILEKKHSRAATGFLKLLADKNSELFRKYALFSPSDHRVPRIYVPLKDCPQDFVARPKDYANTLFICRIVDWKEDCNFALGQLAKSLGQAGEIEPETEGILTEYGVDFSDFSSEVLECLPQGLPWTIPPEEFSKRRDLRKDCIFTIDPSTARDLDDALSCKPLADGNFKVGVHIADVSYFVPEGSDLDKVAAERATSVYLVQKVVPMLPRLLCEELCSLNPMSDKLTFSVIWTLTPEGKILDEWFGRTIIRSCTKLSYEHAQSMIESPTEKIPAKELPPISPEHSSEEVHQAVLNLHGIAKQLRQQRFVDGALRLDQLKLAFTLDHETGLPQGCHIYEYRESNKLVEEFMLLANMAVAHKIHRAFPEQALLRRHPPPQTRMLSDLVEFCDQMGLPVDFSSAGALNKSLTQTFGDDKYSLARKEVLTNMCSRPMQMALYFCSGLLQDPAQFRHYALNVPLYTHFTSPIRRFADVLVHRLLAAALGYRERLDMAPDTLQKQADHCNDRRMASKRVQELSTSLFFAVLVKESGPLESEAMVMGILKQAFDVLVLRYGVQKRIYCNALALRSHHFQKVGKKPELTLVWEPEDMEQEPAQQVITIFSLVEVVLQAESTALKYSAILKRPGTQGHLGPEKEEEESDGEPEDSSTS
UniProt Q5SW79: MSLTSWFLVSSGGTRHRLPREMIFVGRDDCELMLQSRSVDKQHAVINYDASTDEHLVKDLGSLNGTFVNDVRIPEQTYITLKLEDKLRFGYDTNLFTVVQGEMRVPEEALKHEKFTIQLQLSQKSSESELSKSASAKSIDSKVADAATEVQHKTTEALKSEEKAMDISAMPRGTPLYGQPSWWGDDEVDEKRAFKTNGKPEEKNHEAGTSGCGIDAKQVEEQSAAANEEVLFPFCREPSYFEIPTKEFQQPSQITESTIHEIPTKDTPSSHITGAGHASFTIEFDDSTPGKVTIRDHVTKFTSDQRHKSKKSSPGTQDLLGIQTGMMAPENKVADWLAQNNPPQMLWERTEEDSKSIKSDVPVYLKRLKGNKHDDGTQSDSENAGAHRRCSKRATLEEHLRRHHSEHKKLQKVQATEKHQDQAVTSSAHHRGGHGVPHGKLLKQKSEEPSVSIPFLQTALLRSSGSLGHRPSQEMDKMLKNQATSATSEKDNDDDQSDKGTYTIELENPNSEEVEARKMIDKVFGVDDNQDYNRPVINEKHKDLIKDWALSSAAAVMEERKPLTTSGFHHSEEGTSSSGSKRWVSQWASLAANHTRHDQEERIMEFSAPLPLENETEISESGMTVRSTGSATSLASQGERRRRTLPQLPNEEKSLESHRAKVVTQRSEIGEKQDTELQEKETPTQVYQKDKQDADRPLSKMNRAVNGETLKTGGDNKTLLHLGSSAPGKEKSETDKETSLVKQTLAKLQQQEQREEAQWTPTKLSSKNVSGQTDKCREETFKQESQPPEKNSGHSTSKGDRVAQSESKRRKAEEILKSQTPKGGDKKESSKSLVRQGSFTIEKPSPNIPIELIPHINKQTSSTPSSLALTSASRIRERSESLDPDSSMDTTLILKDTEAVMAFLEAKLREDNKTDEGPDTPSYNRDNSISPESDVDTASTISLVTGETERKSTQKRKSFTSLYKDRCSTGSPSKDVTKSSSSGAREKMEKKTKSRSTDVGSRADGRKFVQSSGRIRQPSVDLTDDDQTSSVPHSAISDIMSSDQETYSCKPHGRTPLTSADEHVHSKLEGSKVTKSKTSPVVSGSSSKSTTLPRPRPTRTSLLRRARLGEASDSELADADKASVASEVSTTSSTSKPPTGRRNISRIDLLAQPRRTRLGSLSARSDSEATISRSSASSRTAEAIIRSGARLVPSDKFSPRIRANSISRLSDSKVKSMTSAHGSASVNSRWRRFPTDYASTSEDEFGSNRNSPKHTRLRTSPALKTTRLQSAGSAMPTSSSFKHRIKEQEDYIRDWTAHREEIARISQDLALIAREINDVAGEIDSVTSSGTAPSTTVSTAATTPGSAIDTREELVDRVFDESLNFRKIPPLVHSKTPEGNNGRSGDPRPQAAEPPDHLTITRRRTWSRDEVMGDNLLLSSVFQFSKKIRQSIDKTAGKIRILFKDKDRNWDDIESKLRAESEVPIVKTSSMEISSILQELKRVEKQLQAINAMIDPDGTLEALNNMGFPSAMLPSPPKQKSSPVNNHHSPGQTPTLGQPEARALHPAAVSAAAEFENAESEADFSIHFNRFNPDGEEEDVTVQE
UniProt Q8N163, whole entry, looked up: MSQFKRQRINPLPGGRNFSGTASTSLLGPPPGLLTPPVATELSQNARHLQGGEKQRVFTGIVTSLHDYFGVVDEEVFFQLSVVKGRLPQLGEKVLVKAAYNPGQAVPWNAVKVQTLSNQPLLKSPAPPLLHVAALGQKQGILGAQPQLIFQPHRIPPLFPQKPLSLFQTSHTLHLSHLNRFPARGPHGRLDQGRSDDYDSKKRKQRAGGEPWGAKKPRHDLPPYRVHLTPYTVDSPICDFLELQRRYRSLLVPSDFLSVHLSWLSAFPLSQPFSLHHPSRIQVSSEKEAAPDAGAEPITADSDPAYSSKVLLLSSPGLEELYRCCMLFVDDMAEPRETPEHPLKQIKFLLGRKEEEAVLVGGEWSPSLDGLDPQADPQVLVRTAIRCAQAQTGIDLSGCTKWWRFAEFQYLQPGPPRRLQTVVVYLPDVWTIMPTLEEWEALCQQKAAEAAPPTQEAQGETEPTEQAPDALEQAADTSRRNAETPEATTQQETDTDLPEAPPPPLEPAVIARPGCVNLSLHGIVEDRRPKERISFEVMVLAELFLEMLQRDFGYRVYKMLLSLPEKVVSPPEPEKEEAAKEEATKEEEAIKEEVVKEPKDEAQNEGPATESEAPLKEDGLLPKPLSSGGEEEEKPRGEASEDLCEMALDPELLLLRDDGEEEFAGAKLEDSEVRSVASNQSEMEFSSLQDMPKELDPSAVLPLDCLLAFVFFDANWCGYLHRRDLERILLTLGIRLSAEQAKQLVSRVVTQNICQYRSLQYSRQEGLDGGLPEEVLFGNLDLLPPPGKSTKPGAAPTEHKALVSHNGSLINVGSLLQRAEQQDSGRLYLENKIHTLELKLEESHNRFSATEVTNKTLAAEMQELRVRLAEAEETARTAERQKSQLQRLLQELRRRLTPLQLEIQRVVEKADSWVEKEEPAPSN
UniProt P18887, whole entry, looked up: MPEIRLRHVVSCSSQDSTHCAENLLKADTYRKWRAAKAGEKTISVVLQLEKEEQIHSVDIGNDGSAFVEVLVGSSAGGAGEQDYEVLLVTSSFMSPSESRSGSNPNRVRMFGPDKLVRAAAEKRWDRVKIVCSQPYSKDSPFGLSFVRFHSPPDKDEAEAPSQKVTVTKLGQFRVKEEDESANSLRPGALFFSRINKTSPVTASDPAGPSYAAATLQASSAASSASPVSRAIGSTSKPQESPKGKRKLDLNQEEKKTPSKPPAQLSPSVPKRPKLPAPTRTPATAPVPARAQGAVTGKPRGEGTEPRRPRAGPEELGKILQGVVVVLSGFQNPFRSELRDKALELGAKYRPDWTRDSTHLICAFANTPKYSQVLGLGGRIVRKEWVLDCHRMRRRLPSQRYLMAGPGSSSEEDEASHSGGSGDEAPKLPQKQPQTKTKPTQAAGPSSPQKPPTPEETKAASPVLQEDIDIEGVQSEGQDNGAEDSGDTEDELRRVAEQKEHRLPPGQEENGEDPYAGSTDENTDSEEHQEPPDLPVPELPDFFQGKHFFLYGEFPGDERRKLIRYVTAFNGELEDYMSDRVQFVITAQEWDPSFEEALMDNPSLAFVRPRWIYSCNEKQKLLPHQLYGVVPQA
UniProt Q9ULH1: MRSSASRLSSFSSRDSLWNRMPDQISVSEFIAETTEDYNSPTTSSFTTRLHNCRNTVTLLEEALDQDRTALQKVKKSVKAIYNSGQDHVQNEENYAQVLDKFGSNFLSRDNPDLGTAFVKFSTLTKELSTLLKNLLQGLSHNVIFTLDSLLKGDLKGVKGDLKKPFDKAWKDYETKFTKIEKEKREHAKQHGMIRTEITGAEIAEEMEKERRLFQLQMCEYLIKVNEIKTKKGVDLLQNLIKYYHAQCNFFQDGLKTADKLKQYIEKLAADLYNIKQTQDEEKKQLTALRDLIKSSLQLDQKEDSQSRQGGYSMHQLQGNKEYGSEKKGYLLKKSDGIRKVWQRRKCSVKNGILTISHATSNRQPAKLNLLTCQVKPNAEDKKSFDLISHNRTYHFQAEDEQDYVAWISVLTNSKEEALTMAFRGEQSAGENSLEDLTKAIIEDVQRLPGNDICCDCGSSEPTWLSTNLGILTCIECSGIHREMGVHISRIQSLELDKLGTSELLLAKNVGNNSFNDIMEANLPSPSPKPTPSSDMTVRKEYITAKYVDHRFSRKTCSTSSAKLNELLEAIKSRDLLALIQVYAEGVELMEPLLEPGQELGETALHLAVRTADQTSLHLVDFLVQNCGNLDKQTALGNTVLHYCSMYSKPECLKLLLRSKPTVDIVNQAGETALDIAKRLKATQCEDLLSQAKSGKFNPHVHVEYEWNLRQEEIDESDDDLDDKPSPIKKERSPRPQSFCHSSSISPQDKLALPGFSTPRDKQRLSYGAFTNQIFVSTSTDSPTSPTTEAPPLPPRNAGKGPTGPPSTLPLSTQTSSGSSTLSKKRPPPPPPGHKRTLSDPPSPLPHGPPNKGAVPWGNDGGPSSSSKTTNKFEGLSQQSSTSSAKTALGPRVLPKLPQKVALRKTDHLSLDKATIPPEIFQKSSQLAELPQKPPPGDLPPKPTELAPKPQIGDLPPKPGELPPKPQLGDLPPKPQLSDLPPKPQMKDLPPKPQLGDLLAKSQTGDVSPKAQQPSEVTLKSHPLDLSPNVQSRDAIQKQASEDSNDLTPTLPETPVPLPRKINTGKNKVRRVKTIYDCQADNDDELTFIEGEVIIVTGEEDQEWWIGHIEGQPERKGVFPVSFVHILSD

Compound in this assay: CC[C@@H](C)Nc1cc(C(=O)N[C@H]2C[C@H]3CC[C@@H](C2)N3c2ccc(C(=O)C3CC3)cn2)c(C)cc1C(N)=O [XL888]
Nature of the assay: phosphopeptide melting temperature shift (XL888 minus DMSO); higher = stabilised by drug treatment. Conditions: 100 µM; treatment time 2 h; layout: intact cells; SK-Mel 28. On the procedure:
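Phospho-TPP in intact SK-Mel 28 cells treated with 100 uM XL888 or DMSO for 2 h, heated at 10 temperatures (37-67 C) for 3 min, soluble fraction TMT10plex-labelled and TiO2 phospho-enriched. Melting curves were fitted per phosphopeptide; the value is the melting point difference (drug minus vehicle) in each of two biological replicates.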
In the case of “UniProt Q9Y4F5-3_phosphosite_1475 (phosphosite position: 1475)”, the “phosphopeptide melting temperature shift” value was determined as 0.674 °C.
As to “UniProt Q9BSQ5-4_phosphosite_326 (phosphosite position: 326)”, the “phosphopeptide melting temperature shift” value was 0.542 °C.
For “UniProt Q08170_phosphosite_431 (phosphosite position: 431)”, the “phosphopeptide melting temperature shift” value turned out to be 0.182 ± 1.9 °C.
Regarding “FBXO42 phosphosite_488 (phosphosite position: 488) (UniProt Q6P3S6)”, the “phosphopeptide melting temperature shift” value was found to be 1.29 ± 0.61 °C.
On to “CPSF2 phosphosite_423 (phosphosite position: 423) (UniProt Q9P2I0)”, for which the “phosphopeptide melting temperature shift” value was 1.13 °C.
On to “TMPO phosphosite_351 (phosphosite position: 351) (UniProt P42166)”, for which the “phosphopeptide melting temperature shift” value is -0.56 °C.
Take “UniProt Q15149_phosphosite_4626 (phosphosite position: 4626)”: the “phosphopeptide melting temperature shift” value amounted to 5.77 °C.
Under “MAGED2 phosphosite_194 (phosphosite position: 194) (UniProt Q9UNF1)” stands 0.878 ± 0.51 °C.
For “HEXIM2 phosphosite_53 (phosphosite position: 53) (UniProt Q96MH2)”, the “phosphopeptide melting temperature shift” value is -1.19 °C.
Consider “RBCK1 phosphosite_50 (phosphosite position: 50) (UniProt Q9BYM8)”, for which the “phosphopeptide melting temperature shift” value is 1.38 °C.
With “DIS3L2 phosphosite_875 (phosphosite position: 875) (UniProt Q8IYB7)”, the “phosphopeptide melting temperature shift” value is -0.0578 ± 0.57 °C.
Regarding “UniProt Q5T1M5-2_phosphosite_1154 (phosphosite position: 1154)”, the “phosphopeptide melting temperature shift” value stood at 1.47 °C.
Turning to “UniProt Q14004-2_phosphosite_437 (phosphosite position: 437)”, the “phosphopeptide melting temperature shift” value was -0.549 ± 1.6 °C.
Consider “UniProt Q641Q2-2_phosphosite_619 (phosphosite position: 619)”, for which the “phosphopeptide melting temperature shift” value came out at 0.468 °C.
Consider “NUFIP2 phosphosite_212 (phosphosite position: 212) (UniProt Q7Z417)”, for which the “phosphopeptide melting temperature shift” value is 1.44 ± 1.3 °C.
Consider “CEP170 phosphosite_1529 (phosphosite position: 1529) (UniProt Q5SW79)”, for which the “phosphopeptide melting temperature shift” value amounted to 1.68 ± 1.7 °C.
Under “AKT2 phosphosite_451 (phosphosite position: 451) (UniProt P31751)” stands 0.703 °C; under “UniProt O14974-4_phosphosite_812 (phosphosite position: 812)”, 0.768 °C; under “UniProt Q92878-3_phosphosite_496 (phosphosite position: 496)”, -0.889 °C.
Turning to “TP53BP1 phosphosite_1758 (phosphosite position: 1758) (UniProt Q12888)”, the “phosphopeptide melting temperature shift” value is 2.74 ± 0.42 °C.
“UniProt Q8N163-2_phosphosite_678 (phosphosite position: 678)”: the “phosphopeptide melting temperature shift” value amounted to 0.455 °C.
On to “XRCC1 phosphosite_453 (phosphosite position: 453) (UniProt P18887)”, for which the “phosphopeptide melting temperature shift” value was found to be 0.0984 ± 0.92 °C.
Then “MAP1B phosphosite_995 (phosphosite position: 995) (UniProt P46821)”, with 0.529 ± 1.4 °C; and “TMPO phosphosite_74 (phosphosite position: 74) (UniProt P42166)”, with -4.45 °C.
Under “UniProt Q9UPN4-3_phosphosite_78 (phosphosite position: 78)” stands -1.25 °C.
As for “ASAP1 phosphosite_837 (phosphosite position: 837) (UniProt Q9ULH1)”, the “phosphopeptide melting temperature shift” value amounted to 2.02 °C.
For “UniProt Q14676-3_phosphosite_402 (phosphosite position: 402)”, the “phosphopeptide melting temperature shift” value is 1.2 °C.

For the origin of these results see the supplement of paper PMC5836539.
